Results are given in words; binding and its absence hold for the method and conditions named. Some entries that bind do so weakly or less than the wild type. Tags and fused reporters may be left off the sequences shown.
Target: human FcγRIIB expressed on CHO cells (human) (UniProt P31994)
Assay: FACS, CHO cells expressing FcγRIIB

The chains behind the UniProt entries cited, without tags or fusion partners. Residues count along the entry.
UniProt P31994, residues 43-310: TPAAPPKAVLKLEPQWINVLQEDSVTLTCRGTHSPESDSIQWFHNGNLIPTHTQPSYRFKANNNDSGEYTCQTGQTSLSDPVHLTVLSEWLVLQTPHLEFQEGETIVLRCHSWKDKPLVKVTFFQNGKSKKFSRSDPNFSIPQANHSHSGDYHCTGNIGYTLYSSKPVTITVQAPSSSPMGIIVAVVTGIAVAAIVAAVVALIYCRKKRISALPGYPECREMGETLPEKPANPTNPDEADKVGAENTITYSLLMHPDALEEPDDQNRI

binding: binds
B1: anti-CD137 IgG2 with Fc variant G2m28 (antibody)
heavy: EVQLVQSGAEVKKPGESLRISCKGSGYSFSTYWISWVRQMPGKGLEWMGKIYPGDSYTNYSPSFQGQVTISADKSISTAYLQWSSLKASDTAMYYCARGYGIFDYWGQGTLVTVSSASTKGPSVFPLAPCSRSTSESTAALGCLVKDYFPEPVTVSWNSGALTSGVHTFPAVLQSSGLYSLSSVVTVPSSNFGTQTYTCNVDHKPSNTKVDKTVERKCCVECPPCPAPPVAPSVFLFPPKPKDTLMISRTPEVTCVVVDVEHEDPEVQFNWYVDGVEVHNAKTKPREEQFNSTFRVVSVLTVVHQDWLNGKEYKCKVSNKGLPAPIEKTISKTKGQPREPQVYTLPPSREEMTKNQVSLTCLVKGFYPSDIAVEWESNGQPENNYKTTPPMLDSDGSFFLYSKLTVDKSRWQQGNVFSCSVMHEALHNHYTQKSLSLSPGK
light: SYELTQPPSVSVSPGQTASITCSGDNIGDQYAHWYQQKPGQSPVLVIYQDKNRPSGIPERFSGSNSGNTATLTISGTQAMDEADYYCATYTGFGSLAVFGGGTKLTVLGQPKAAPSVTLFPPSSEELQANKATLVCLISDFYPGAVTVAWKADSSPVKAGVETTTPSKQSNNKYAASSYLSLTPEQWKSHRSYSCQVTHEGSTVEKTVAPTECS

Reference: US20200392227A1
